In patent US12409206B2, “Use of cyclosporine analogues for treating fibrosis” (Hepion Pharmaceuticals, Inc., priority 2020, dated 2025):
Read-outs that look alike come from different tables or passages of the source. The source gives many values for each of these; only a part stands here.

Tested on: human precision cut liver slices (PCLS)
Assay: PCLS RNA-Seq, Nonstimulation Protocol: Non-stimulated+CRV vs Non-stimulated+Vehicle
Assay type: cell-based
Protocol: PCLS were obtained from 5 human donors who underwent resection of liver cancer. Replicate slices were collected from healthy margins of the resections and cultured for 4 or 6 days depending on the experimental protocol. In the Nonstimulation Protocol slices were cultured for 6 days and treated for the entire period with DMSO vehicle or 5 μM CRV431. In the Stimulation Protocol slices were rested for 1 day and then administered the cytokines, TGFβ and PDGF-BB, for 3 days to stimulate inflammation and fibrosis. DMSO vehicle, CRV431 (1 and 5 μM), Alk5i (10 μM), obeticholic acid (5 μM), elafibranor (5 μM), resmetirom ([…]), and Aramchol (5 μM) were administered individually as drug treatments in the Stimulation Protocol concurrent with TGFβ+PDGF-BB. Culture medium treatments were replaced daily.
Four types of evaluations were conducted on the PCLS: (a) secretion of inflammation and fibrosis biomarkers into the culture medium, (b) histological staining and quantitation of Sirius red as a measure of tissue fibrosis, (c) gene expression of inflammation and fibrosis biomarkers by RT-PCR, and (d) RNA sequencing (RNA-Seq) of the complete transcriptome. Each of the four types of evaluation is described below: • (a) Biomarker secretion. Spent culture medium was collected daily from duplicate slices for each treatment. ELISAs were used to quantify secretion of monocyte chemoattractant protein (MCP-1), interleukin-6 (IL-6), tissue inhibitor of metalloproteinase-1 (TIMP1), hyaluronic acid, fibronectin, and collagen 1α1. For each donor the mean level of biomarker secretion in each treatment group was expressed as a percentage change relative to DMSO vehicle, the percentages averaged for all donors, and finally the mean daily percentage change calculated from all days of evaluation. Results are shown in FIG. 8A (secreted markers-% daily average change). • (b) Sirius red histological staining. […] Sirius red was quantified morphometrically in the histological sections as the percentage area with Sirius red staining in 10 sections from each treatment. In the Nonstimulation Protocol the quantity of Sirius red staining was expressed relative to the vehicle group. In the Stimulation Protocol the quantity of Sirius red staining was expressed relative to nonstimulated PCLS (0%) and TGFβ+PDGF-BB-stimulated+vehicle PCLS (100%). Results are shown in FIG. 8B (Sirius red staining for tissue fibrosis). • (c) Gene expression by RT-PCR. RNA was isolated from duplicate liver slices per treatment at the end of the experiments and evaluated by RT-PCR for 5 markers of inflammation and fibrosis: MCP-1, IL-6, TIMP1, αSMA, and collagen 1α1. β actin was used as a reference gene to calculate relative levels of each target gene RNA. […] Results are shown in FIG. 8C (gene expression by RT-PCR). • (d) Gene expression by RNA-Seq. RNA sequencing of the complete transcriptome (30 million reads per sample) was conducted on vehicle and 5 μM CRV431 treatment groups from 3 donors both from the Nonstimulation and Stimulation Protocols. Data were analyzed by bioinformatics software programs to identify genes that were differentially expressed between vehicle and CRV431 treatments.
For the evaluation done for (d), 12 samples corresponding to 3 different donor slides which underwent 4 different treatments were studied. the comparisons carried out in this analysis are: (1) TGFb/PDGF+CRV vs TGFb/PDGF+Vehicle (V), and (2) Non-stimulated+CRV vs Non-stimulated+Vehicle. […] Table 1. Samples for evaluation (d)
Quality Control check was performed in all samples. All samples had more than 30 million reads and a quality score average >35 for almost all the bases in the sequences. The duplication levels are expected as it is RNA sequencing, and different copies of the same RNA are expected to be present in the samples. All samples had good amount of reads and quality, therefore all samples passed the QC checked and were included in the analysis. […]

CC[C@@H]1NC(=O)[C@H]([C@H](O)[C@H](C)CCCCCCNC(C)=O)N(C)C(=O)[C@H](C(C)C)N(C)C(=O)[C@H](CC(C)C)N(C)C(=O)[C@H](CC(C)C)N(C)C(=O)[C@@H](C)NC(=O)[C@H](C)NC(=O)[C@H](CC(C)C)N(C)C(=O)[C@H](C(C)C)NC(=O)[C@H](CC(C)C)N(C)C(=O)[C@@H](C)N(C)C1=O [CRV431]
log2FoldChange: 0.577 | log2FoldChange (gene AC099668.1, Non-stimulated+CRV vs Non-stimulated+Vehicle): 1.056 | log2FoldChange (gene ADGRD1, Non-stimulated+CRV vs Non-stimulated+Vehicle): −1.126 | log2FoldChange (gene AFG1L, Non-stimulated+CRV vs Non-stimulated+Vehicle): 1.327 | log2FoldChange (gene AGT, Non-stimulated+CRV vs Non-stimulated+Vehicle): −0.627 | log2FoldChange (gene AKAP10, Non-stimulated+CRV vs Non-stimulated+Vehicle): −1.249 | log2FoldChange (gene ALPK3, Non-stimulated+CRV vs Non-stimulated+Vehicle): −0.621 | log2FoldChange (gene AP000347.1, Non-stimulated+CRV vs Non-stimulated+Vehicle): 1.809 | log2FoldChange (gene APBA1, Non-stimulated+CRV vs Non-stimulated+Vehicle): −1.158 | log2FoldChange (gene ARVCF, Non-stimulated+CRV vs Non-stimulated+Vehicle): −0.609 | log2FoldChange (gene C4B, Non-stimulated+CRV vs Non-stimulated+Vehicle): −0.506 | log2FoldChange (gene CACUL1, Non-stimulated+CRV vs Non-stimulated+Vehicle): −0.94 | log2FoldChange (gene CCNK, Non-stimulated+CRV vs Non-stimulated+Vehicle): 0.545 | log2FoldChange (gene CD5L, Non-stimulated+CRV vs Non-stimulated+Vehicle): 1.675 | log2FoldChange (gene CD180, Non-stimulated+CRV vs Non-stimulated+Vehicle): 1.051 | log2FoldChange (gene COL27A1, Non-stimulated+CRV vs Non-stimulated+Vehicle): −0.545 | log2FoldChange (gene CXCL5, Non-stimulated+CRV vs Non-stimulated+Vehicle): 0.663 | log2FoldChange (gene CYP3A4, Non-stimulated+CRV vs Non-stimulated+Vehicle): −2.313 | log2FoldChange (gene DAAM2, Non-stimulated+CRV vs Non-stimulated+Vehicle): 1.498 | log2FoldChange (gene DANCR, Non-stimulated+CRV vs Non-stimulated+Vehicle): 0.693 | log2FoldChange (gene DGKD, Non-stimulated+CRV vs Non-stimulated+Vehicle): −0.85 | log2FoldChange (gene DKK1, Non-stimulated+CRV vs Non-stimulated+Vehicle): 1.939 | log2FoldChange (gene DUS3L, Non-stimulated+CRV vs Non-stimulated+Vehicle): 0.745 | log2FoldChange (gene ESM1, Non-stimulated+CRV vs Non-stimulated+Vehicle): −1.157 | log2FoldChange (gene FANCI, Non-stimulated+CRV vs Non-stimulated+Vehicle): −1.319 | log2FoldChange (gene FSTL 1, Non-stimulated+CRV vs Non-stimulated+Vehicle): −0.595 | log2FoldChange (gene GEM, Non-stimulated+CRV vs Non-stimulated+Vehicle): −0.975 | log2FoldChange (gene GMPPB, Non-stimulated+CRV vs Non-stimulated+Vehicle): 0.715 | log2FoldChange (gene GOLGA8A, Non-stimulated+CRV vs Non-stimulated+Vehicle): −0.669 | log2FoldChange (gene GYG1, Non-stimulated+CRV vs Non-stimulated+Vehicle): 0.94 | log2FoldChange (gene HID1, Non-stimulated+CRV vs Non-stimulated+Vehicle): 0.716 | log2FoldChange (gene HLA-F, Non-stimulated+CRV vs Non-stimulated+Vehicle): −0.727 | log2FoldChange (gene HM13, Non-stimulated+CRV vs Non-stimulated+Vehicle): 0.528 | log2FoldChange (gene HOOK1, Non-stimulated+CRV vs Non-stimulated+Vehicle): −0.998 | log2FoldChange (gene IFI6, Non-stimulated+CRV vs Non-stimulated+Vehicle): −1.273 | log2FoldChange (gene IFI44L, Non-stimulated+CRV vs Non-stimulated+Vehicle): −2.254 | log2FoldChange (gene IFIT2, Non-stimulated+CRV vs Non-stimulated+Vehicle): −0.812 | log2FoldChange (gene ISLR, Non-stimulated+CRV vs Non-stimulated+Vehicle): −0.815 | log2FoldChange (gene KAT14, Non-stimulated+CRV vs Non-stimulated+Vehicle): 0.874 | log2FoldChange (gene KIAA0513, Non-stimulated+CRV vs Non-stimulated+Vehicle): −0.98 | log2FoldChange (gene KRT81, Non-stimulated+CRV vs Non-stimulated+Vehicle): 1.137 | log2FoldChange (gene L3MBTL1, Non-stimulated+CRV vs Non-stimulated+Vehicle): −2.03 | log2FoldChange (gene LGALS3BP, Non-stimulated+CRV vs Non-stimulated+Vehicle): −0.556 | log2FoldChange (gene LILRB4, Non-stimulated+CRV vs Non-stimulated+Vehicle): 0.909 | log2FoldChange (gene LILRB5, Non-stimulated+CRV vs Non-stimulated+Vehicle): 1.075 | log2FoldChange (gene MANF, Non-stimulated+CRV vs Non-stimulated+Vehicle): 0.682 | log2FoldChange (gene MEG3, Non-stimulated+CRV vs Non-stimulated+Vehicle): −0.682 | log2FoldChange (gene MIR194-2HG, Non-stimulated+CRV vs Non-stimulated+Vehicle): −2.973 | log2FoldChange (gene MLLT10, Non-stimulated+CRV vs Non-stimulated+Vehicle): −1.19 | log2FoldChange (gene MT-CO1, Non-stimulated+CRV vs Non-stimulated+Vehicle): −1.083 | log2FoldChange (gene MTCO1P12, Non-stimulated+CRV vs Non-stimulated+Vehicle): −1.183 | log2FoldChange (gene NOTCH3, Non-stimulated+CRV vs Non-stimulated+Vehicle): −0.564 | log2FoldChange (gene NUGGC, Non-stimulated+CRV vs Non-stimulated+Vehicle): 1.136 | log2FoldChange (gene PALM2-AKAP2, Non-stimulated+CRV vs Non-stimulated+Vehicle): −1.035 | log2FoldChange (gene PAN2, Non-stimulated+CRV vs Non-stimulated+Vehicle): 0.742 | log2FoldChange (gene PDE4C, Non-stimulated+CRV vs Non-stimulated+Vehicle): −0.669 | log2FoldChange (gene PDZD2, Non-stimulated+CRV vs Non-stimulated+Vehicle): −1.468 | log2FoldChange (gene PEG10, Non-stimulated+CRV vs Non-stimulated+Vehicle): 1.463 | log2FoldChange (gene PFKFB3, Non-stimulated+CRV vs Non-stimulated+Vehicle): −0.545 | log2FoldChange (gene PLTP, Non-stimulated+CRV vs Non-stimulated+Vehicle): −0.584 | log2FoldChange (gene PLXNA2, Non-stimulated+CRV vs Non-stimulated+Vehicle): 1.719 | log2FoldChange (gene R3HDM2, Non-stimulated+CRV vs Non-stimulated+Vehicle): −0.678 | log2FoldChange (gene RAD51D, Non-stimulated+CRV vs Non-stimulated+Vehicle): 1.387 | log2FoldChange (gene RARRES2, Non-stimulated+CRV vs Non-stimulated+Vehicle): −0.766 | log2FoldChange (gene RFX1, Non-stimulated+CRV vs Non-stimulated+Vehicle): −1.495 | log2FoldChange (gene SCRIB, Non-stimulated+CRV vs Non-stimulated+Vehicle): 0.661 | log2FoldChange (gene SEC11C, Non-stimulated+CRV vs Non-stimulated+Vehicle): 0.844 | log2FoldChange (gene SEC24D, Non-stimulated+CRV vs Non-stimulated+Vehicle): 0.58 | log2FoldChange (gene SEC61B, Non-stimulated+CRV vs Non-stimulated+Vehicle): 0.602 | log2FoldChange (gene SELL, Non-stimulated+CRV vs Non-stimulated+Vehicle): 2.035 | log2FoldChange (gene SIPA1L3, Non-stimulated+CRV vs Non-stimulated+Vehicle): −0.652 | log2FoldChange (gene SKI, Non-stimulated+CRV vs Non-stimulated+Vehicle): −0.931 | log2FoldChange (gene SLC2A1, Non-stimulated+CRV vs Non-stimulated+Vehicle): −0.635 | log2FoldChange (gene SLC29A1, Non-stimulated+CRV vs Non-stimulated+Vehicle): −0.53 | log2FoldChange (gene SPCS3, Non-stimulated+CRV vs Non-stimulated+Vehicle): 0.715 | log2FoldChange (gene SSR4, Non-stimulated+CRV vs Non-stimulated+Vehicle): 0.564 | log2FoldChange (gene SYNGAP1, Non-stimulated+CRV vs Non-stimulated+Vehicle): −1.718 | log2FoldChange (gene SYNRG, Non-stimulated+CRV vs Non-stimulated+Vehicle): −0.74 | log2FoldChange (gene TMEM154, Non-stimulated+CRV vs Non-stimulated+Vehicle): −1.351 | log2FoldChange (gene TNFSF14, Non-stimulated+CRV vs Non-stimulated+Vehicle): −0.681 | log2FoldChange (gene TRPV6, Non-stimulated+CRV vs Non-stimulated+Vehicle): 0.83 | log2FoldChange (gene TTLL3, Non-stimulated+CRV vs Non-stimulated+Vehicle): −0.579 | log2FoldChange (gene UHRF2, Non-stimulated+CRV vs Non-stimulated+Vehicle): −0.778 | log2FoldChange (gene UNKL, Non-stimulated+CRV vs Non-stimulated+Vehicle): −0.916 | log2FoldChange (gene WNK1, Non-stimulated+CRV vs Non-stimulated+Vehicle): −0.698 | log2FoldChange (gene XAF1, Non-stimulated+CRV vs Non-stimulated+Vehicle): −0.725
